In paper PMC7897482 one finds binding data, which are given here for two molecules.

Experiment [1] deals with T1, SmD3::HA (transgenic UAS-SmD3::3xHA) (Drosophila melanogaster) (UniProt O44437).
T1 sequence: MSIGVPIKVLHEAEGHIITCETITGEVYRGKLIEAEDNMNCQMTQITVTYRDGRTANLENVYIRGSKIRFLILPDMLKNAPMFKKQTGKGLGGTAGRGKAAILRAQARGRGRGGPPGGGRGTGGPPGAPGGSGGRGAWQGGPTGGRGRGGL
In words: affinity purification with mass spectrometry; SmD3::HA precipitated with an HA-specific antibody from lysates of wing imaginal discs (nub>mRFP, SmD3::HA), wild type or with ecd RNAi; LC-MS/MS; control: nub>mRFP discs.

For experiment [2], the target named is T2, Myc::Ecd^wt (Ecdysoneless, wild type) (Drosophila melanogaster) (UniProt Q9W032).
T2 sequence: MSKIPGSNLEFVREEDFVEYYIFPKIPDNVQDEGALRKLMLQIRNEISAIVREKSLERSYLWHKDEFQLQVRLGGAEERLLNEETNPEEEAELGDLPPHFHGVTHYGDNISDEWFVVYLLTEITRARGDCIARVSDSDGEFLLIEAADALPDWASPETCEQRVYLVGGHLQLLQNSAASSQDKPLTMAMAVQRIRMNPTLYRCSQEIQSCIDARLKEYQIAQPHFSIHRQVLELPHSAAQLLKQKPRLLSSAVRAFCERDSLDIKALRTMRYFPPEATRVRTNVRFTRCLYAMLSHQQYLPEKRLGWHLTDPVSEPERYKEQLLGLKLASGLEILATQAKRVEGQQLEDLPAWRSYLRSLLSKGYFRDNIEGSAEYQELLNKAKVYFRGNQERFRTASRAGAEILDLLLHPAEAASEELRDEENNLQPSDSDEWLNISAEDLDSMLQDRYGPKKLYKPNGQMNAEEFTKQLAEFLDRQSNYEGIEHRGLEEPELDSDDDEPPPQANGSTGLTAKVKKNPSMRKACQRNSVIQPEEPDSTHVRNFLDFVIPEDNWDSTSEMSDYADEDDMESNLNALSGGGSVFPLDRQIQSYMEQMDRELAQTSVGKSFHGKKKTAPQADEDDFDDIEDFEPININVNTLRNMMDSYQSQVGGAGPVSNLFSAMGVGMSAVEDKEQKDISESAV
In words: affinity purification with mass spectrometry; Myc::Ecd^wt or Myc::Ecd^Δ34 precipitated with an anti-Myc antibody from Drosophila S2 cell lysates; LC-MS/MS, four biological replicates; control: S2 cells not expressing Myc::Ecd^wt.

Results are given in words; binding and its absence hold for the method and conditions named. Binding seen in cells or lysates may run through a third protein. These calls come from enrichment with a bait or labelling near it, and not all partners need be listed. Where a sequence is shown, tags or fusion partners need not be part of it.

B1: Holn1 (wing imaginal discs) (protein, UniProt Q9VKV5 1-319)
chain: MASKRKHQASQKVKEESFKKHTLDSDEEDSDDYEREYLNDSDIEGGEEGVAKVEDDVKVTPFNMKEELEEGHFDKDGHYHWNKETEAKDNWLDNIDWVKIGTQKNAFDPAKDEENSSDEEKNEPVGKAFNLSMNLMKMVEFMKPGETVKMTLQRLGKQRPVLTTLQRIKQKKAGIVDPKTQEISQLTELANEILSKTGNMDIYQDTYESIKAKIADLPGTSKPKVADDIDMYADDFETKELERSKTSSSDSSKPTTTTSEVTWEFKWSQDETDIQGPFSTEKMLKWSQENYFKNGVYVRKCGENTNFYTSNRIDFDLYL
Turning to B1, the binding result in experiment [1] was “binds”.

B2: endogenous SmD3 (S2 cells) (protein, UniProt O44437 1-151)
chain: MSIGVPIKVLHEAEGHIITCETITGEVYRGKLIEAEDNMNCQMTQITVTYRDGRTANLENVYIRGSKIRFLILPDMLKNAPMFKKQTGKGLGGTAGRGKAAILRAQARGRGRGGPPGGGRGTGGPPGAPGGSGGRGAWQGGPTGGRGRGGL
Turning to B2, the binding entry in experiment [2] was “binds”.
